Laboratory results reported in article PMC6316800.
No constants are given. Whether binding was seen depends on the method and setting. Binding seen in cells or lysates may run through a third protein. These calls come from enrichment with a bait or labelling near it, and not all partners need be listed.

By UniProt entry, the sequences of proteins in these tests, tags left out.
UniProt P03496: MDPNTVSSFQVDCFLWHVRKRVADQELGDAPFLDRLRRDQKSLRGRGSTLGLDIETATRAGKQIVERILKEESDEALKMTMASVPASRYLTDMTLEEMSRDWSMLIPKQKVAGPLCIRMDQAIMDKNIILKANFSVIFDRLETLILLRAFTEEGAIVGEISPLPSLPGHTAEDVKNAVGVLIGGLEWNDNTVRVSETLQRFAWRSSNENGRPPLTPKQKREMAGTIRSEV

Biological target: Influenza A virus non-structural protein 1 (NS1), strain A/Puerto Rico/8/1934(H1N1) (Influenza A virus A/Puerto Rico/8/1934(H1N1)) (UniProt P03496)
Assay: affinity purification with mass spectrometry

Binder	binding
Heterogeneous nuclear ribonucleoprotein H3 (protein, UniProt P31942 1-346) MDWVMKHNGPNDASDGTVRLRGLPFGCSKEEIVQFFQGLEIVPNGITLTMDYQGRSTGEAFVQFASKEIAENALGKHKERIGHRYIEIFRSSRSEIKGFYDPPRRLLGQRPGPYDRPIGGRGGYYGAGRGSMYDRMRRGGDGYDGGYGGFDDYGGYNNYGYGNDGFDDRMRDGRGMGGHGYGGAGDASSGFHGGHFVHMRGLPFRATENDIANFFSPLNPIRVHIDIGADGRATGEADVEFVTHEDAVAAMSKDKNNMQHRYIELFLNSTPGGGSGMGGSGMGGYGRDGMDNQGGYGSVGRMGMGNNYSGGYGTPDGLGGYGRGGGGSGGYYGQGGMSGGGWRGMY	binds
Guanine nucleotide-binding protein-like 3 (protein, UniProt Q9BVP2 1-549) MKRPKLKKASKRMTCHKRYKIQKKVREHHRKLRKEAKKRGHKKPRKDPGVPNSAPFKEALLREAELRKQRLEELKQQQKLDRQKELEKKRKLETNPDIKPSNVEPMEKEFGLCKTENKAKSGKQNSKKLYCQELKKVIEASDVVLEVLDARDPLGCRCPQVEEAIVQSGQKKLVLILNKSDLVPKENLESWLNYLKKELPTVVFRASTKPKDKGKITKRVKAKKNAAPFRSEVCFGKEGLWKLLGGFQETCSKAIRVGVIGFPNVGKSSIINSLKQEQMCNVGVSMGLTRSMQVVPLDKQITIIDSPSFIVSPLNSSSALALRSPASIEVVKPMEAASAILSQADARQVVLKYTVPGYRNSLEFFTVLAQRRGMHQKGGIPNVEGAAKLLWSEWTGASLAYYCHPPTSWTPPPYFNESIVVDMKSGFNLEELEKNNAQSIRAIKGPHLANSILFQSSGLTNGIIEEKDIHEELPKRKERKQEEREDDKDSDQETVDEEVDENSSGMFAAEETGEALSEETTAGEQSTRSFILDKIIEEDDAYDFSTDYV	binds
Probable rRNA-processing protein EBP2 (protein, UniProt Q99848 1-306) MDTPPLSDSESESDESLVTDRELQDAFSRGLLKPGLNVVLEGPKKAVNDVNGLKQCLAEFKRDLEWVERLDVTLGPVPEIGGSEAPAPQNKDQKAVDPEDDFQREMSFYRQAQAAVLAVLPRLHQLKVPTKRPTDYFAEMAKSDLQMQKIRQKLQTKQAAMERSEKAKQLRALRKYGKKVQTEVLQKRQQEKAHMMNAIKKYQKGFSDKLDFLEGDQKPLAQRKKAGAKGQQMRKGPSAKRRYKNQKFGFGGKKKGSKWNTRESYDDVSSFRAKTAHGRGLKRPGKKGSNKRPGKRTREKMKNRTH	binds
Heterogeneous nuclear ribonucleoprotein L (protein, UniProt P14866 1-589) MSRRLLPRAEKRRRRLEQRQQPDEQRRRSGAMVKMAAAGGGGGGGRYYGGGSEGGRAPKRLKTDNAGDQHGGGGGGGGGAGAAGGGGGGENYDDPHKTPASPVVHIRGLIDGVVEADLVEALQEFGPISYVVVMPKKRQALVEFEDVLGACNAVNYAADNQIYIAGHPAFVNYSTSQKISRPGDSDDSRSVNSVLLFTILNPIYSITTDVLYTICNPCGPVQRIVIFRKNGVQAMVEFDSVQSAQRAKASLNGADIYSGCCTLKIEYAKPTRLNVFKNDQDTWDYTNPNLSGQGDPGSNPNKRQRQPPLLGDHPAEYGGPHGGYHSHYHDEGYGPPPPHYEGRRMGPPVGGHRRGPSRYGPQYGHPPPPPPPPEYGPHADSPVLMVYGLDQSKMNCDRVFNVFCLYGNVEKVKFMKSKPGAAMVEMADGYAVDRAITHLNNNFMFGQKLNVCVSKQPAIMPGQSYGLEDGSCSYKDFSESRNNRFSTPEQAAKNRIQHPSNVLHFFNAPLEVTEENFFEICDELGVKRPSSVKVFSGKSERSSSGLLEWESKSDALETLGFLNHYQMKNPNGPYPYTLKLCFSTAQHAS	binds
Deoxynucleotidyltransferase terminal-interacting protein 2 (protein, UniProt Q5QJE6 1-756) MVVTRSARAKASIQAASAESSGQKSFAANGIQAHPESSTGSDARTTAESQTTGKQSLIPRTPKARKRKSRTTGSLPKGTEPSTDGETSEAESNYSVSEHHDTILRVTRRRQILIACSPVSSVRKKPKVTPTKESYTEEIVSEAESHVSGISRIVLPTEKTTGARRSKAKSLTDPSQESHTEAISDAETSSSDISFSGIATRRTRSMQRKLKAQTEKKDSKIVPGNEKQIVGTPVNSEDSDTRQTSHLQARSLSEINKPNFYNNDFDDDFSHRSSENILTVHEQANVESLKETKQNCKDLDEDANGITDEGKEINEKSSQLKNLSELQDTSLQQLVSQRHSTPQNKNAVSVHSNLNSEAVMKSLTQTFATVEVGRWNNNKKSPIKASDLTKFGDCGGSDDEEESTVISVSEDMNSEGNVDFECDTKLYTSAPNTSQGKDNSVLLVLSSDESQQSENSENEEDTLCFVENSGQRESLSGDTGSLSCDNALFVIDTTPGMSADKNFYLEEEDKASEVAIEEEKEEEEDEKSEEDSSDHDENEDEFSDEEDFLNSTKAKLLKLTSSSIDPGLSIKQLGGLYINFNADKLQSNKRTLTQIKEKKKNELLQKAVITPDFEKNHCVPPYSESKYQLQKKRRKERQKTAGDGWFGMKAPEMTNELKNDLKALKMRASMDPKRFYKKNDRDGFPKYFQIGTIVDNPADFYHSRIPKKQRKRTIVEELLADSEFRRYNRRKYSEIMAEKAANAAGKKFRKKKKFRN	binds
Heterogeneous nuclear ribonucleoprotein M (protein, UniProt P52272 1-730) MAAGVEAAAEVAATEIKMEEESGAPGVPSGNGAPGPKGEGERPAQNEKRKEKNIKRGGNRFEPYANPTKRYRAFITNIPFDVKWQSLKDLVKEKVGEVTYVELLMDAEGKSRGCAVVEFKMEESMKKAAEVLNKHSLSGRPLKVKEDPDGEHARRAMQKVMATTGGMGMGPGGPGMITIPPSILNNPNIPNEIIHALQAGRLGSTVFVANLDYKVGWKKLKEVFSMAGVVVRADILEDKDGKSRGIGTVTFEQSIEAVQAISMFNGQLLFDRPMHVKMDERALPKGDFFPPERPQQLPHGLGGIGMGLGPGGQPIDANHLNKGIGMGNIGPAGMGMEGIGFGINKMGGMEGPFGGGMENMGRFGSGMNMGRINEILSNALKRGEIIAKQGGGGGGGSVPGIERMGPGIDRLGGAGMERMGAGLGHGMDRVGSEIERMGLVMDRMGSVERMGSGIERMGPLGLDHMASSIERMGQTMERIGSGVERMGAGMGFGLERMAAPIDRVGQTIERMGSGVERMGPAIERMGLSMERMVPAGMGAGLERMGPVMDRMATGLERMGANNLERMGLERMGANSLERMGLERMGANSLERMGPAMGPALGAGIERMGLAMGGGGGASFDRAIEMERGNFGGSFAGSFGGAGGHAPGVARKACQIFVRNLPFDFTWKMLKDKFNECGHVLYADIKMENGKSKGCGVVKFESPEVAERACRMMNGMKLSGREIDVRIDRNA	binds
Heterogeneous nuclear ribonucleoprotein A (protein, UniProt Q13151 1-305) MENSQLCKLFIGGLNVQTSESGLRGHFEAFGTLTDCVVVVNPQTKRSRCFGFVTYSNVEEADAAMAASPHAVDGNTVELKRAVSREDSARPGAHAKVKKLFVGGLKGDVAEGDLIEHFSQFGTVEKAEIIADKQSGKKRGFGFVYFQNHDAADKAAVVKFHPIQGHRVEVKKAVPKEDIYSGGGGGGSRSSRGGRGGRGRGGGRDQNGLSKGGGGGYNSYGGYGGGGGGGYNAYGGGGGGSSYGGSDYGNGFGGFGSYSQHQSSYGPMKSGGGGGGGGSSWGGRSNSGPYRGGYGGGGGYGGSSF	binds
Putative rRNA methyltransferase 3 (protein, UniProt Q8IY81 1-847) MGKKGKVGKSRRDKFYHLAKETGYRSRSAFKLIQLNRRFQFLQKARALLDLCAAPGGWLQVAAKFMPVSSLIVGVDLVPIKPLPNVVTLQQDITTERCRQALRKELKTWKVDVVLNDGAPNVGASWVHDAYSQAHLTLMALRLACDFLARGGSFITKVFRSRDYQPLLWIFQQLFRRVQATKPQASRHESAEIFVVCQGFLAPDKVDSKFFDPKFAFKEVEVQAKTVTELVTKKKPKAEGYAEGDLTLYHRTSVTDFLRAANPVDFLSKASEIMVDDEELAQHPATTEDIRVCCQDIRVLGRKELRSLLNWRTKLRRYVAKKLKEQAKALDISLSSGEEDEGDEEDSTAGTTKQPSKEEEEEEEEEQLNQTLAEMKAQEVAELKRKKKKLLREQRKQRERVELKMDLPGVSIADEGETGMFSLSTIRGHQLLEEVTQGDMSAADTFLSDLPRDDIYVSDVEDDGDDTSLDSDLDPEELAGVRGHQGLRDQKRMRLTEVQDDKEEEEEENPLLVPLEEKAVLQEEQANLWFSKGSFAGIEDDADEALEISQAQLLFENRRKGRQQQQKQQLPQTPPSCLKTEIMSPLYQDEAPKGTEASSGTEAATGLEGEEKDGISDSDSSTSSEEEESWEPLRGKKRSRGPKSDDDGFEIVPIEDPAKHRILDPEGLALGAVIASSKKAKRDLIDNSFNRYTFNEDEGELPEWFVQEEKQHRIRQLPVGKKEVEHYRKRWREINARPIKKVAEAKARKKRRMLKRLEQTRKKAEAVVNTVDISEREKVAQLRSLYKKAGLGKEKRHVTYVVAKKGVGRKVRRPAGVRGHFKVVDSRMKKDQRAQQRKEQKKKHKRK	binds
Double-stranded RNA-specific adenosine deaminase (protein, UniProt P55265 1-1226) MNPRQGYSLSGYYTHPFQGYEHRQLRYQQPGPGSSPSSFLLKQIEFLKGQLPEAPVIGKQTPSLPPSLPGLRPRFPVLLASSTRGRQVDIRGVPRGVHLRSQGLQRGFQHPSPRGRSLPQRGVDCLSSHFQELSIYQDQEQRILKFLEELGEGKATTAHDLSGKLGTPKKEINRVLYSLAKKGKLQKEAGTPPLWKIAVSTQAWNQHSGVVRPDGHSQGAPNSDPSLEPEDRNSTSVSEDLLEPFIAVSAQAWNQHSGVVRPDSHSQGSPNSDPGLEPEDSNSTSALEDPLEFLDMAEIKEKICDYLFNVSDSSALNLAKNIGLTKARDINAVLIDMERQGDVYRQGTTPPIWHLTDKKRERMQIKRNTNSVPETAPAAIPETKRNAEFLTCNIPTSNASNNMVTTEKVENGQEPVIKLENRQEARPEPARLKPPVHYNGPSKAGYVDFENGQWATDDIPDDLNSIRAAPGEFRAIMEMPSFYSHGLPRCSPYKKLTECQLKNPISGLLEYAQFASQTCEFNMIEQSGPPHEPRFKFQVVINGREFPPAEAGSKKVAKQDAAMKAMTILLEEAKAKDSGKSEESSHYSTEKESEKTAESQTPTPSATSFFSGKSPVTTLLECMHKLGNSCEFRLLSKEGPAHEPKFQYCVAVGAQTFPSVSAPSKKVAKQMAAEEAMKALHGEATNSMASDNQPEGMISESLDNLESMMPNKVRKIGELVRYLNTNPVGGLLEYARSHGFAAEFKLVDQSGPPHEPKFVYQAKVGGRWFPAVCAHSKKQGKQEAADAALRVLIGENEKAERMGFTEVTPVTGASLRRTMLLLSRSPEAQPKTLPLTGSTFHDQIAMLSHRCFNTLTNSFQPSLLGRKILAAIIMKKDSEDMGVVVSLGTGNRCVKGDSLSLKGETVNDCHAEIISRRGFIRFLYSELMKYNSQTAKDSIFEPAKGGEKLQIKKTVSFHLYISTAPCGDGALFDKSCSDRAMESTESRHYPVFENPKQGKLRTKVENGEGTIPVESSDIVPTWDGIRLGERLRTMSCSDKILRWNVLGLQGALLTHFLQPIYLKSVTLGYLFSQGHLTRAICCRVTRDGSAFEDGLRHPFIVNHPKVGRVSIYDSKRQSGKTKETSVNWCLADGYDLEILDGTRGTVDGPRNELSRVSKKNIFLLFKKLCSFRYRRDLLRLSYGEAKKAARDYETAKNYFKKGLKDMGYGNWISKPQEEKNFYLCPV	binds
